Results from patent publication US20060073528A1, “Measurement methods” (priority 2004, published 2006).
Several values for one entry are separate records, joined by “and”; a condition that tells them apart may be missing. Equal entries are not always repeated. Where two headings read alike, the source gives them in different places.

Columns and labels:
[1] = Hisep RP-HPLC quantitation of DM1 monomer, DM1 dimer, DM1-TPA adduct, PPA and mercaptopyridine (specificity, precision, linearity, spike recovery, LOD, LOQ, range)
[2] = Effect of extraction solvent for sample preparation on recovery; standards crossover study (Hisep RP-HPLC)
[3] = limit of detection, standard solutions, triplicates
[4] = limit of quantitation, standard solutions, triplicates

## COc1cc2cc(c1Cl)N(C)C(=O)CC(OC(=O)C(C)N(C)CC(=O)CCSSC(C)CCC(=O)O)C1(C)OC1C(C)C1CC(O)(NC(=O)O1)C(OC)C=CC=C(C)C2 (stereo not shown) [DM1-TPA adduct, DM1-thiopentanoic acid adduct]
[1]
  LOD - standard solution: 0.015 µM
  LOQ - standard solution: 0.062 µM

## COc1cc2cc(c1Cl)N(C)C(=O)C[C@H](OC(=O)[C@H](C)N(C)C(=O)CCS)[C@]1(C)O[C@H]1[C@H](C)[C@@H]1C[C@@](O)(NC(=O)O1)[C@H](OC)/C=C/C=C(\C)C2 [DM1 monomer]
[1]; [3]
  LOD - standard solution: 0.025 µM
[1]; [4]
  LOQ - standard solution: 0.125 µM
[2]; 0.5 μM
  % diff original vs new standard: 1.7%
  New standard, Avg (area): 20077
  New standard, Injection (area): 20538 and 19616
  Original standard, Avg (area): 19513
  Original standard, Injection (area): 19627 and 19399
[2]; 1.0 μM
  % diff original vs new standard: 30.4%
  New standard, Avg (area): 52266
  New standard, Injection (area): 52407 and 52125
  Original standard, Avg (area): 40016
  Original standard, Injection (area): 39984 and 40048
[2]; 5.0 μM
  % diff original vs new standard: 14.1%
  New standard, Avg (area): 255399
  New standard, Injection (area): 255949 and 254849
  Original standard, Avg (area): 223640
  Original standard, Injection (area): 223654 and 223627
[2]; 10.0 μM
  % diff original vs new standard: 12.4%
  New standard, Avg (area): 519846
  New standard, Injection (area): 521439 and 518253
  Original standard, Avg (area): 461739
  Original standard, Injection (area): 461364 and 462114

## CC(CCC(=O)O)SSc1ccccn1 (stereo not shown) [PPA, 4-(2-pyridyldithio) pentanoic acid]
[1]; [3]
  LOD - standard solution: 0.155 µM
[1]; [4]
  LOQ - standard solution: 0.312 µM

## S=c1cccc[nH]1 [mercaptopyridine]
[1]; [3]
  LOD - standard solution: 0.075 µM
[1]; [4]
  LOQ - standard solution: 0.15 µM
